Measurements as given in PubChem BioAssay AID651768 (National Center for Advancing Translational Sciences (NCATS), 2012).
The campaign covered roughly 360,000 compounds. About 1,700 (0.47%) were called active. Inconclusive means that the source gave no clear call. Such entries were picked first, then a sample of the others. The call rests on the fitted dose curve; in most records, active means well fitted inhibition curve with a large enough effect; inconclusive means small, poorly fitted or top-dose-only effect; inactive means no such curve, though single readings can be large or run the other way. Where the call is inconclusive, the potency comes from a doubtful curve fit.

Protein sequences, listed by entry. Tags and fused reporters are not part of them.
UniProt Q14191, whole entry, looked up: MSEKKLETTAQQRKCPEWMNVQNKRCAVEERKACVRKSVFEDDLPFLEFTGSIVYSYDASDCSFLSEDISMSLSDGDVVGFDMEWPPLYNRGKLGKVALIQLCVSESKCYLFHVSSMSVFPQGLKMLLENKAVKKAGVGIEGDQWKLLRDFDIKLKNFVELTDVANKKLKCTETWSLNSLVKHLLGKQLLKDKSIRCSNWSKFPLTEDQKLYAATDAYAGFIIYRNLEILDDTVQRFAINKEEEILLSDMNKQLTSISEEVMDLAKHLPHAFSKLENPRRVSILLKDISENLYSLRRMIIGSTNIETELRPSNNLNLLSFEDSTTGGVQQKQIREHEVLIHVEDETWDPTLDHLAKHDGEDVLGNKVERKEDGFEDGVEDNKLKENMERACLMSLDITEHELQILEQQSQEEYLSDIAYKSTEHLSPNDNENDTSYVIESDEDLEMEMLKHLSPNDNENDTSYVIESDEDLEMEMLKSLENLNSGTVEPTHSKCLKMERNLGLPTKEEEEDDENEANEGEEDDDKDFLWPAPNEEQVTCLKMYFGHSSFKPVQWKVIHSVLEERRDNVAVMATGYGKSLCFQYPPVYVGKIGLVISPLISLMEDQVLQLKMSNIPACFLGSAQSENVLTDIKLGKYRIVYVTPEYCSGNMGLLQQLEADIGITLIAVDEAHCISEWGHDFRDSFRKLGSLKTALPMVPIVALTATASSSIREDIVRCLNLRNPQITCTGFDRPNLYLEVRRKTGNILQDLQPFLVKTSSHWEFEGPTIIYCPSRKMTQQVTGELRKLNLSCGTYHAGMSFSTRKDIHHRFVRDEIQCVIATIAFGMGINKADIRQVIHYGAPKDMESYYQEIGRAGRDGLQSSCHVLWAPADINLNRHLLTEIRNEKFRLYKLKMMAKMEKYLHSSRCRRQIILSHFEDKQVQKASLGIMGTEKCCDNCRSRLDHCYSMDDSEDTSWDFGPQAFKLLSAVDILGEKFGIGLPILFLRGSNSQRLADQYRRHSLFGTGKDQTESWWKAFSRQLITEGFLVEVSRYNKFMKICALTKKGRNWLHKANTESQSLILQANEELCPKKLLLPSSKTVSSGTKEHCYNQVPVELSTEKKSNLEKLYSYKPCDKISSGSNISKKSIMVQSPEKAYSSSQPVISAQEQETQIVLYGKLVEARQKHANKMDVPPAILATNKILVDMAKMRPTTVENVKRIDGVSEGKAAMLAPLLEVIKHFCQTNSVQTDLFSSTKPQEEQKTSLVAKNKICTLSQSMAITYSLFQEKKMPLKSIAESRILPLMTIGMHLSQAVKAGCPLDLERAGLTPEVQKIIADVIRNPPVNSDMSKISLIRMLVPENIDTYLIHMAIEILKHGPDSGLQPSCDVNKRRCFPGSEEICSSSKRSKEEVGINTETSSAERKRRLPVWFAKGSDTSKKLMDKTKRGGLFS

Each molecule was assayed against Bifunctional 3'-5' exonuclease/ATP-dependent helicase WRN (Homo sapiens) (UniProt Q14191) (assay: qHTS for Inhibitors of WRN Helicase). Conditions: WRN helicase unwinding, fluorescent forked duplex, kinetic; activity change, negative = inhibition: at 114 µM (top of the series) unless noted.
How it was run: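 Enzyme (20 nM final) and test compound sit together 15 min at room temperature before substrate addition. Substrate is a single-forked duplex oligonucleotide (100 nM) labelled with fluorophore and quencher, with 2 mM ATP; helicase unwinding raises red fluorescence, read kinetically.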
Further: nearly all actives have a fitted effect of over 55% in size.
On the % scale 0 is the no-effect control and ±100 the full control effect; potency means the concentration at half of the fitted maximal effect.

| Structure (SMILES) | activity change, negative = inhibition | Potency |
| --- | --- | --- |
| NCCc1ccc(O)c(O)c1 | inactive: 5.81% |  |
| C#CCOCCOCCOCCNc1nc(N2CCN(C(=O)CCCCCCCCCCNC(=O)[C@H](CCCCN)n3cc(CCO)nn3)CC2)nc(N2CCN(C(=O)CCCCCCCCCCNC(=O)[C@H](CCCCN)n3cc(CCO)nn3)CC2)n1 | inactive: -9.73% |  |
| O=C(Nc1ccccc1)c1ccc(NCC2CCCO2)c([N+](=O)[O-])c1 (stereo not drawn) | inactive: 0.244% |  |
| N#Cc1c(NC(=O)CSc2nc(-c3ccco3)cc(C(F)(F)F)n2)sc2c1CCCC2 | inactive: -1.33% |  |
| COc1ccc(C(=O)NCCSc2ccccc2)cc1OC |  | inconclusive: 89.1 µM [inhibitor, single point] |
| CN(C)/C=C1/Sc2ccccc2C1=O | inactive: 2.86% |  |
| O=C(/C=C/c1ccco1)NC(=S)Nc1cccc(C(=O)O)c1 |  | active: 20 µM |
| O=S(=O)(c1ccc(Cl)cc1)c1cnc2ccccc2n1 |  | inconclusive: 79.4 µM [inhibitor, single point] |
| O=C(O)c1ccc(CNc2ccccc2C(=O)O)cc1 | inactive: -20.4% [at 57.1 µM] |  |
| Nc1c(C(=O)Nc2ccc(F)cc2)sc2nc(-c3ccco3)ccc12 | inactive: -10.3% |  |
| COc1ccc(/C=N/N2CCN(C3c4ccccc4-c4ccccc43)CC2)cc1O | inactive: -31.4% |  |
| O=C(COc1ccc2cc(-c3ccccc3)c(=O)oc2c1)NCC1CCC(C(=O)O)CC1 (stereo not drawn) | inactive: -0.134% |  |
| C#Cc1ccc(C(=O)NCc2ccc(N3CCCC3=O)cc2)cc1 | inactive: -13.2% [at 11.6 µM] |  |
| CSc1nc(N(C)CCO)c2sc3nc(-c4ccco4)c4c(c3c2n1)CCC4 |  | active: 22.4 µM |
| O=C(N/N=C/c1coc2ccccc2c1=O)c1ccc(Cl)cc1 |  | inconclusive: 89.1 µM [inhibitor, single point] |
| COc1cc(/C=N/NC(=O)c2ccccn2)ccc1OC(=O)c1ccc(Br)cc1 |  | inconclusive: 89.1 µM [inhibitor, single point] |
| CCOC(=O)C1=C(CSc2nc3c(cc2C#N)CN(C)CC3)OC(N)=C(C#N)C1c1ccc(Cl)cc1 (stereo not drawn) |  | inconclusive: 39.8 µM [inhibitor, partial curve] |
| CCOc1cc(/C=C2\C(=O)N(CCc3ccc(OC)c(OC)c3)C(C)=C2C(=O)OC)ccc1O |  | active: 79.4 µM |
| C=CCn1cccc(C(=O)Nc2ccc(OC)c(OC)c2)c1=O |  | inconclusive: 28.2 µM [inhibitor, single point] |
| O=c1cc(-c2ccc(O)cc2)oc2cc(O)c(C3OC(CO)C(O)C(O)C3O)c(O)c12 (stereo not drawn) |  | inconclusive: 50.1 µM [inhibitor, partial curve] |
| CSCC[C@H](NS(=O)(=O)c1ccc(C(C)=O)cc1)c1nnc2ccccn12 |  | inconclusive: 56.2 µM [inhibitor, partial curve] |
| Cc1ccc(NC(=O)CN2C(=O)S/C(=C\c3ccc(OCC(=O)O)c(Br)c3)C2=O)cc1 |  | inconclusive: 56.2 µM [inhibitor, partial curve] |
| O=C(O)CCn1cc(/C=C/C(=O)c2ccc(Cl)cc2)c(-c2ccc(Br)cc2)n1 |  | inconclusive: 79.4 µM [inhibitor, partial curve] |

Some of the entries so far, with bars between the fields:
Structure (SMILES) | activity change, negative = inhibition | Potency
CSc1nc(N(C)CCO)c2sc3nc(-c4ccco4)c4c(c3c2n1)CCC4 |  | active: 22.4 µM
O=C(N/N=C/c1coc2ccccc2c1=O)c1ccc(Cl)cc1 |  | inconclusive: 89.1 µM [inhibitor, single point]
COc1cc(/C=N/NC(=O)c2ccccn2)ccc1OC(=O)c1ccc(Br)cc1 |  | inconclusive: 89.1 µM [inhibitor, single point]
CCOC(=O)C1=C(CSc2nc3c(cc2C#N)CN(C)CC3)OC(N)=C(C#N)C1c1ccc(Cl)cc1 (stereo not drawn) |  | inconclusive: 39.8 µM [inhibitor, partial curve]
CCOc1cc(/C=C2\C(=O)N(CCc3ccc(OC)c(OC)c3)C(C)=C2C(=O)OC)ccc1O |  | active: 79.4 µM

(listing goes on)

| Structure (SMILES) | activity change, negative = inhibition | Potency |
| --- | --- | --- |
| Cc1cc2[nH]c(=O)c(=O)[nH]c2cc1S(=O)(=O)N(C)C1CCCCC1 |  | inconclusive: 28.2 µM [inhibitor, full curve, poor fit] |
| COc1cc(/C=C(\C#N)c2nc3ccccc3[nH]2)ccc1OC(=O)c1ccco1 |  | inconclusive: 25.1 µM [inhibitor, single point] |
| CS(=O)(=O)Nc1ccc(C(=O)Nc2ccc(S(=O)(=O)Nc3nccs3)cc2)cc1 |  | inconclusive: 79.4 µM [inhibitor, single point] |
| C(=N\NC1=Nc2cccc3cccc1c23)/c1cccnc1 |  | inconclusive: 10 µM [inhibitor, full curve, poor fit] |
| O=C(COc1cccc2cccnc12)N/N=C/c1ccccc1O |  | inconclusive: 50.1 µM [inhibitor, partial curve] |
| COC(=O)CCCC1=CC2=CC(=O)C(C)(OC(=O)CCc3ccccc3)C(=O)C2=CO1 (stereo not drawn) |  | inconclusive: 50.1 µM [inhibitor, partial curve] |
| O=C(O)c1ccc(CN2C[C@@H](CO)O[C@@H](n3cnc4c(N5CCOCC5)ncnc43)C2)cc1 | inactive: -8.25% |  |
| CCCCCCCCCCCCN1[C@@H](CC(=O)O)c2cc(F)ccc2S1(=O)=O |  | inconclusive: 79.4 µM [inhibitor, partial curve] |
| Cc1ccc(O)c(C(=O)c2cc(C#N)c3nc4ccccc4n3c2)c1 |  | inconclusive: 79.4 µM [inhibitor, partial curve] |
| Cc1ccnc(NS(=O)(=O)c2ccc(CC(C)C)cc2)c1 | inactive: 5.59% |  |
| Cc1ccc2c(c1)c1nnc(SCC(=O)Nc3cccc(Cl)c3C)nc1n2CC(=O)O |  | inconclusive: 56.2 µM [inhibitor, partial curve] |
| COc1ccc(C2C(C(=O)c3ccco3)=C(O)C(=O)N2CC2CCCO2)c(OC)c1 (stereo not drawn) |  | inconclusive: 79.4 µM [inhibitor, single point] |
| COc1ccc(OCC(=O)Sc2ccc(C)cc2)cc1 |  | inconclusive: 50.1 µM [inhibitor, partial curve] |
| Cn1cc(-c2cnc3c(NC=O)cc(-c4cccc(C(F)(F)F)c4)cn23)cn1 |  | inconclusive: 39.8 µM [inhibitor, single point] |
| Cc1cnc(C(=O)OCc2nc3ccsc3c(=O)[nH]2)cn1 |  | active: 50.1 µM |
| COc1ccc(S(=O)(=O)Nc2ccc3c(c2)CCC3)cc1 |  | inconclusive: 89.1 µM [inhibitor, single point] |
| C=CCN1C=C/C(=C\C=C(C#N)C#N)c2ccccc21 |  | inconclusive: 31.6 µM [inhibitor, single point] |
| Cc1ccccc1CN(C)CC(=O)Nc1ccccc1Oc1ccccc1 |  | inconclusive: 56.2 µM [inhibitor, partial curve] |
| O=c1[nH]c(=O)c2nc3c4ccccc4c4ccccc4c3nc2[nH]1 |  | inconclusive: 2.67 µM [inhibitor, partial curve] |
| N#Cc1ccc(CSc2nnc(NC(=O)c3ccc4ncsc4c3)s2)cc1 |  | inconclusive: 25.1 µM [inhibitor, single point] |
| Cc1nn(CC(=O)Nc2ccc(N3CCOCC3)cc2)c(C)c1Br |  | inconclusive: 89.1 µM [inhibitor, single point] |
| CCc1cc2c(=O)c(-c3nc4ccccc4n3C)coc2c(CN2CCCCC2C)c1O (stereo not drawn) |  | inconclusive: 79.4 µM [inhibitor, single point] |
| CCOC(=O)c1ccc(N=Nc2c(C)[nH]n(-c3ccccc3)c2=O)cc1 | inactive: 5.43% |  |

| Structure (SMILES) | activity change, negative = inhibition | Potency |
| --- | --- | --- |
| N#C/C(=C\c1cccc(O)c1)C(=O)Nc1ccc2c(c1)OCCO2 |  | inconclusive: 31.6 µM [inhibitor, full curve] |
| CCOc1ccc(-n2c(SCC(=O)NC(C)CC)nc3n[nH]c(C)c3c2=N)cc1 (stereo not drawn) |  | inconclusive: 79.4 µM [inhibitor, partial curve] |
| C/C=C\C=C\C(=O)N1CC2(CC(c3cccc(NC(=O)CC)c3)=NO2)C[C@H]1C(N)=O (stereo partly drawn) |  | inconclusive: 56.2 µM [inhibitor, partial curve] |
| COc1ccc(C(=O)/C=C2\C(=O)Nc3ccc(Br)cc32)cc1 |  | inconclusive: 17.8 µM [inhibitor, single point] |
| CCN(CC)S(=O)(=O)c1ccc(N=NC2=C(O)CCCC2=O)cc1 | inactive: -4.38% |  |
| CCC(=O)c1ccc(CCCCCC(=O)O)s1 |  | inconclusive: 21.2 µM [inhibitor, partial curve] |
| CCCCCc1c2c(cc(O)c1C(=O)O)OC(=O)c1cc(C(=O)CCCC)c(OC)cc1O2 |  | inconclusive: 79.4 µM [inhibitor, partial curve] |
| Cc1ccc(NC(=O)CC2SC(=O)N(c3ccccc3)C2=O)cc1 (stereo not drawn) |  | inconclusive: 35.5 µM [inhibitor, partial curve] |
| COc1ccc(C(C)C)cc1S(=O)(=O)N1CCC(C(=O)NCc2cccnc2)CC1 | inactive: -9.75% |  |
| COc1ccc(-c2ccc(C(=S)N3CCN(C(C)=O)CC3)o2)cc1 | inactive: -8.4% |  |
| COc1ccccc1CNC(=O)C(C)Sc1ccc(C)cc1 (stereo not drawn) | inactive: 4.96% |  |
| Cc1cccc(NC(=O)c2sc3nc4c(c(-c5cccs5)c3c2N)CN(C)CC4)c1 |  | inconclusive: 100 µM [inhibitor, single point] |
| O=C(COc1ccccc1/C=C1\SC(=O)NC1=O)Nc1ccccc1 |  | inconclusive: 56.2 µM [inhibitor, partial curve, poor fit] |
| COC1=C(Br)C(=O)c2nc(C)ccc2C1=O |  | active: 50.1 µM |
| CCCS(=O)(=O)c1nc(S(=O)(=O)c2ccc(C)cc2)c(N2CCC(C(N)=O)CC2)s1 | inactive: -5.22% |  |
| Cc1[nH]cnc1C(=O)N/N=C/c1c(Cl)cccc1Cl | inactive: 9.42% |  |
| Cc1c(C(=O)Nc2ccc3c(c2)OCCO3)sc2ncnc(N3CCCCC3C)c12 (stereo not drawn) | inactive: -7.78% [at 57.1 µM] |  |
| Nc1ccc2c(O)cc(S(=O)(=O)O)cc2c1 | inconclusive: -49.8% [inhibitor] |  |
| NS(=O)(=O)c1ccc(CCNC(=O)Cc2ccc(S(=O)(=O)N3CCCC3)s2)cc1 |  | inconclusive: 50.1 µM [inhibitor, partial curve] |
| CC(C)CN(C(=O)COC(=O)c1cncc(Br)c1)c1c(N)n(Cc2ccccc2)c(=O)[nH]c1=O |  | inconclusive: 100 µM [inhibitor, single point] |
| NS(=O)(=O)c1ccc(NS(=O)(=O)c2ccc(NC(=O)c3ccc(-c4ccccc4)cc3)cc2)cc1 |  | inconclusive: 56.2 µM [inhibitor, partial curve] |
| CCCCOC(=O)CNc1nnc(SCC(=O)OCC)[nH]c1=O |  | inconclusive: 63.1 µM [inhibitor, partial curve, poor fit] |
